Laboratory results: the supplement of paper PMC10849652
The list shows a part of the results.

Chains of the proteins cited; added tags and fusions are not shown. Lines headed by an entry give the natural chain unless they say otherwise; changes in a name come on top.
UniProt Q9NZ52: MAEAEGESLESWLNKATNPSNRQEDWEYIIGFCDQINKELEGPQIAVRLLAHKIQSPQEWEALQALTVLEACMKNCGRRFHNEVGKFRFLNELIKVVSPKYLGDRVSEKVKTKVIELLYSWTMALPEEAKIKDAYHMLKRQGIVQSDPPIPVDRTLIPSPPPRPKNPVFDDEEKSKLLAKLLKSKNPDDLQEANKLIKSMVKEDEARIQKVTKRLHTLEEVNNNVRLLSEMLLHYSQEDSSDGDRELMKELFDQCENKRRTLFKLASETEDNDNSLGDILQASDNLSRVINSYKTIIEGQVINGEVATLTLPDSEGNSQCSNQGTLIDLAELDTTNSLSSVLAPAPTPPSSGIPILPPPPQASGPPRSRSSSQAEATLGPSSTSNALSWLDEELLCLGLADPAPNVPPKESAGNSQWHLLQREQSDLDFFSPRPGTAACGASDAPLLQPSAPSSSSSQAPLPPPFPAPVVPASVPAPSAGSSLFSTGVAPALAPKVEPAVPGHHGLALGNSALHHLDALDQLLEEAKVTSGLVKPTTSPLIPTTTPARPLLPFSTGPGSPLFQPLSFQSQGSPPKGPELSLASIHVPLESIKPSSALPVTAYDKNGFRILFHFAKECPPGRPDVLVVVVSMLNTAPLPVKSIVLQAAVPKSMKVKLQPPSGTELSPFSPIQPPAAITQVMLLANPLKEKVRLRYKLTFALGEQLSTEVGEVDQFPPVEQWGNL
UniProt O75223: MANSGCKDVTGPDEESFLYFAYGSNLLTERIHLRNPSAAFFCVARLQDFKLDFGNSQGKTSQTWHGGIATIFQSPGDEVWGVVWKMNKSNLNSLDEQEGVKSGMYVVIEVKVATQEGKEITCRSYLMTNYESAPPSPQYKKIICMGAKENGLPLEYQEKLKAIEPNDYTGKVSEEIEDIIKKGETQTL
UniProt Q06210: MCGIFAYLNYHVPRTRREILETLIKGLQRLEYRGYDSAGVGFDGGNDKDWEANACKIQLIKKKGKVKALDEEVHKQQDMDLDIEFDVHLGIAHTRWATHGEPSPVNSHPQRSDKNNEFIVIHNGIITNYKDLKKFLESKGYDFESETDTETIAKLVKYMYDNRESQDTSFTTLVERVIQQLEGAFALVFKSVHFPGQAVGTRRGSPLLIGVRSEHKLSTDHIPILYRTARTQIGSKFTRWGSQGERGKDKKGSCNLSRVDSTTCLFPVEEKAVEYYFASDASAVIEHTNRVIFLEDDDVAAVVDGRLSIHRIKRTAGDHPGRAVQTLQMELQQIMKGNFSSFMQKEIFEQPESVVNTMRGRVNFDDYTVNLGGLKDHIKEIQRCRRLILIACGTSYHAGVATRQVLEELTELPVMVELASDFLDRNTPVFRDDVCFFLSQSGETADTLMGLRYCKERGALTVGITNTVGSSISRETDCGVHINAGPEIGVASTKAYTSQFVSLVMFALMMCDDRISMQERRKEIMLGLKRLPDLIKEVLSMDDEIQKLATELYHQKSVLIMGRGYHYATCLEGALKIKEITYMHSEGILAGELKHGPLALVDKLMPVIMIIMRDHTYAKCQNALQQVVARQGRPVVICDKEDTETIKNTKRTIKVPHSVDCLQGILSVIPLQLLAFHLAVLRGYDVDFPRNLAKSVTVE
UniProt P09958, whole entry, looked up: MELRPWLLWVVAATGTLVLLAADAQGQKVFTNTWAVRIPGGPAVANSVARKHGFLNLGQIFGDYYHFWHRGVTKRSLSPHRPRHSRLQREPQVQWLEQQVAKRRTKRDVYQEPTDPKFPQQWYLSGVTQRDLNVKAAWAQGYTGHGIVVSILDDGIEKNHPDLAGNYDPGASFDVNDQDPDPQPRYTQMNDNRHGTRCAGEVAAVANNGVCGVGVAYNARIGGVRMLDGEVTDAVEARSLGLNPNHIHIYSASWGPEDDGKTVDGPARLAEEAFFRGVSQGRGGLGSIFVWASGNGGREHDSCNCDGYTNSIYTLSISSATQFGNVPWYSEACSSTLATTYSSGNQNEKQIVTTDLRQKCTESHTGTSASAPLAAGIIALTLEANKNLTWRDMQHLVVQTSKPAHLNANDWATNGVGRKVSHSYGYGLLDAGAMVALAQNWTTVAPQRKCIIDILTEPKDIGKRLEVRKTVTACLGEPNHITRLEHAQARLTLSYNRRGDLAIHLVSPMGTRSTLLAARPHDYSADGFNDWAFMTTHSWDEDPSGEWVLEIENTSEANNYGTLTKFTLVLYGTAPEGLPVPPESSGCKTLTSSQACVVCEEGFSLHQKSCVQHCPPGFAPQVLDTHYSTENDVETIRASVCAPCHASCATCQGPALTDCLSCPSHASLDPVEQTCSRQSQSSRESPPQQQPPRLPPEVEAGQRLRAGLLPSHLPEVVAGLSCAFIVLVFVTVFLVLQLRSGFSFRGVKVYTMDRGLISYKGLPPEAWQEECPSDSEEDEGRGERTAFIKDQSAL
UniProt Q9BWH2: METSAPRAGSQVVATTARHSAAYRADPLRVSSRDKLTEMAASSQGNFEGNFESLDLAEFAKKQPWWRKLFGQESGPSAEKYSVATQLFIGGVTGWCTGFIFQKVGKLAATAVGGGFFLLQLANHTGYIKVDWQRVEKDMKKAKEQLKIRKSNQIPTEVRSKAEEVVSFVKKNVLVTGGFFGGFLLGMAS
UniProt Q13069: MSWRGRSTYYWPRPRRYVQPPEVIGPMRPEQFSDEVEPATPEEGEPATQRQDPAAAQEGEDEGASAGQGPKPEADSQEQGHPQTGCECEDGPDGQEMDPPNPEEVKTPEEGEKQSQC
UniProt Q14376: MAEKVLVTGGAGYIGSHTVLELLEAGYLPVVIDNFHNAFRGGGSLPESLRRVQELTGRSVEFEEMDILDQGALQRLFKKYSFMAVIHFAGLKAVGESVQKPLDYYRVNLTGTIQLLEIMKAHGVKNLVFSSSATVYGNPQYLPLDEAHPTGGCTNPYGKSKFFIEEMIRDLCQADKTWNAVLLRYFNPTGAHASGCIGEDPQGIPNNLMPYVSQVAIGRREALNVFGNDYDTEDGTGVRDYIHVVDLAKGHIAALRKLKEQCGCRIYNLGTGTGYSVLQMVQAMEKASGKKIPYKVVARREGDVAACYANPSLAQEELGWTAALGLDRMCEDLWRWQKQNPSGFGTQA
UniProt P51116, whole entry, looked up: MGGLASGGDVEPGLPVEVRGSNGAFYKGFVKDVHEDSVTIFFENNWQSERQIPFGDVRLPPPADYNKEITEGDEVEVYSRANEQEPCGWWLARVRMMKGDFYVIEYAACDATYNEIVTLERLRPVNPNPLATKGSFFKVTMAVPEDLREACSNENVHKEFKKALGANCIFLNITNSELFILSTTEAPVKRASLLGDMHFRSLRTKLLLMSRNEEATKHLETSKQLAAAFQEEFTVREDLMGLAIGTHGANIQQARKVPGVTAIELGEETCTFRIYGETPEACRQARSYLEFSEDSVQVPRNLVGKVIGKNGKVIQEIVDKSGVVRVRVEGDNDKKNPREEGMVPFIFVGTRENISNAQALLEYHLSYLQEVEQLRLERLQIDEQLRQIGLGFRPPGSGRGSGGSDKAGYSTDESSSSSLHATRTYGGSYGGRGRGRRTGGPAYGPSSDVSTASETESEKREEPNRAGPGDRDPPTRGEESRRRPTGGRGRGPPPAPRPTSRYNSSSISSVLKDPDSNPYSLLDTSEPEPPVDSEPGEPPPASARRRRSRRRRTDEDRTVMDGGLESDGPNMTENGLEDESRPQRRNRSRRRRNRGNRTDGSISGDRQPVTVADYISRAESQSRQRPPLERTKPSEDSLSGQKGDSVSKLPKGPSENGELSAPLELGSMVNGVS
UniProt Q13283, whole entry, looked up: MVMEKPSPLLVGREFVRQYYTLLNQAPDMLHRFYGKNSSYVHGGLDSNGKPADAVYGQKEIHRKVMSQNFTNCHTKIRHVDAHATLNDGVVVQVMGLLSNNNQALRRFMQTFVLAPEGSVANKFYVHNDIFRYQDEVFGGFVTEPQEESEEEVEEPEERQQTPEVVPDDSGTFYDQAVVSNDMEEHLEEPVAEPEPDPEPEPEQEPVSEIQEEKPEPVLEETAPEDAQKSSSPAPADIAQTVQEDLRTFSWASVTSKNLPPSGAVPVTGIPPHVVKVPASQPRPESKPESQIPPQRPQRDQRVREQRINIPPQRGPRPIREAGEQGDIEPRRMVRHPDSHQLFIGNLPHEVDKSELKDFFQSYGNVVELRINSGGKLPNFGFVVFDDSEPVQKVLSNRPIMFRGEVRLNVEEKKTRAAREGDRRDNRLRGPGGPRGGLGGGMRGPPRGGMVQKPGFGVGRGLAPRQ
UniProt Q14697: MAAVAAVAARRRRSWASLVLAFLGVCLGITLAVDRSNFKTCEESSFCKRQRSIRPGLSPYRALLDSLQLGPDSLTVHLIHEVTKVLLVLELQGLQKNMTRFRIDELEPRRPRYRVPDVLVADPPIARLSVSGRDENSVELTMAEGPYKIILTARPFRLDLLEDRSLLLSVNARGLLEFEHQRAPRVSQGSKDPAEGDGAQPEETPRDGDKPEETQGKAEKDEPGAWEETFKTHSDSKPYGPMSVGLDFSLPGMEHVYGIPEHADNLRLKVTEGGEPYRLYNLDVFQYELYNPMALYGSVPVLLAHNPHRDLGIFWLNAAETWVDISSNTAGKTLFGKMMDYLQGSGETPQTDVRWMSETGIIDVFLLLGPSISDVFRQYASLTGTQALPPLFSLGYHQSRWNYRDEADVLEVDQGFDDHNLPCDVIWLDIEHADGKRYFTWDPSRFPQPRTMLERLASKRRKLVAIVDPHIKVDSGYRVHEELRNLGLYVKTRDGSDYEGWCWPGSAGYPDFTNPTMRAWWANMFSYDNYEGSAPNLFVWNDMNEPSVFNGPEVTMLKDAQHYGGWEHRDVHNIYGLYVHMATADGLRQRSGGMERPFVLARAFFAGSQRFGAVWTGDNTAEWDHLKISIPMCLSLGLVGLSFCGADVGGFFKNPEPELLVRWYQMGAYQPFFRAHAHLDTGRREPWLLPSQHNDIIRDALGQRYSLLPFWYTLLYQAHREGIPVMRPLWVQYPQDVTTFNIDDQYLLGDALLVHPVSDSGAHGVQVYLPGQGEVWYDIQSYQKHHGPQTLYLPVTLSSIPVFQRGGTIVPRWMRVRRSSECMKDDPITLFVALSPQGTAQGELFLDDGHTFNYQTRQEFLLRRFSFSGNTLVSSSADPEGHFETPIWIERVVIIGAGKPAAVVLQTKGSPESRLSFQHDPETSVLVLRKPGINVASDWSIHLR
UniProt Q13480: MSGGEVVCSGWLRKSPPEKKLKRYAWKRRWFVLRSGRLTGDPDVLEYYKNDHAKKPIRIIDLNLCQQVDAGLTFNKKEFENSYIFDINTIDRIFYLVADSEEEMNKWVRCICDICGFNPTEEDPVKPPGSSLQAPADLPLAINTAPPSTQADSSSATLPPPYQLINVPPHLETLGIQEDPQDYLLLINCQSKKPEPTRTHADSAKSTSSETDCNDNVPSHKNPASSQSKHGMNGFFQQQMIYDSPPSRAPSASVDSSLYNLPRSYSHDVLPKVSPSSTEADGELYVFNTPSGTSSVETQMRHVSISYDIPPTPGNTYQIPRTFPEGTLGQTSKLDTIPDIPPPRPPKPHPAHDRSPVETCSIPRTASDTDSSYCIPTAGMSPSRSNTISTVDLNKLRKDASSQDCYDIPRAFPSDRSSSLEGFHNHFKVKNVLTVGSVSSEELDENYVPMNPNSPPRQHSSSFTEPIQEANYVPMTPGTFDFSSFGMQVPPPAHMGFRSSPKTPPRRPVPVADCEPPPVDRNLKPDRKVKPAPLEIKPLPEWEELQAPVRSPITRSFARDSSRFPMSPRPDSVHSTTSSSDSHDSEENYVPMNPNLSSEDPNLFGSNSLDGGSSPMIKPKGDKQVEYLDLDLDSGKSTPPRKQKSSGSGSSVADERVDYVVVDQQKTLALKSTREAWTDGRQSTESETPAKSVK
UniProt P02774: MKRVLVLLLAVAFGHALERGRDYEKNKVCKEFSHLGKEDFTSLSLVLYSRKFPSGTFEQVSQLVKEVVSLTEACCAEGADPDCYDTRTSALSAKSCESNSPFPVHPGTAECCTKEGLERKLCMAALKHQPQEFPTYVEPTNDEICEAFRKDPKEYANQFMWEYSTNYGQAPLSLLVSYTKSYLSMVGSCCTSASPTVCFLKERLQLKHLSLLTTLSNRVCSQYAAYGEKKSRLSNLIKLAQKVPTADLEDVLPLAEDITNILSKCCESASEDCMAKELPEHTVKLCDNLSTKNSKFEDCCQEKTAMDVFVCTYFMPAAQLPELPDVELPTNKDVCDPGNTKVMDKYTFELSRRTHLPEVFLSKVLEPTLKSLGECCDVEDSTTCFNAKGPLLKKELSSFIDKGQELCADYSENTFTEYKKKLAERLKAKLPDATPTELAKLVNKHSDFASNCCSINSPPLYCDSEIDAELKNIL

Experiments:
Assay in all cases: log2 fold change, soluble protein after heating vs DMSO (PISA); higher = thermal stabilisation; K562 cells, 10 uM, 30 min; active = over 0.2 and 3.5 SD of the protein, either way, in both replicates (recomputed)
[1] = compound: CS(=O)(=O)c1ccc(-c2cnc(N)c(C(=O)Nc3ccccc3)n2)cc1
In short: (§1)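 Thermal stability values are relative to control samples and come from duplicates. They are expressed as log2 fold changes. For measurement, K562 cells (2×10^6 cells/mL) received 10 μM compound for 30 min, and aliquots were heated for 3 min over 48°C-58°C, pooled, and extracted at 4°C in PBS with 0.5% NP-40. Soluble protein, the supernatant after 21,000xg for 90 min, was quantified by TMTpro 16plex LC-MS/MS with equalised channel sums.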

crizotinib = compound: C[C@@H](Oc1cc(-c2cnn(C3CCNCC3)c2)cnc1N)c1c(Cl)ccc(F)c1Cl [crizotinib]
In short: as §1

[2] = compound: C[C@@H]1COCCN1C2=NC(=NC(=C2)C3(CC3)S(=O)(=O)C)C4=C5C=CNC5=CC=C4
In short: as §1

[3] = compound: C[C@H](C1=CC=C(C=C1)C(=O)NC2=C3C=CNC3=NC=C2)N
In short: as §1

duvelisib = compound: C[C@H](Nc1ncnc2nc[nH]c12)c1cc2cccc(Cl)c2c(=O)n1-c1ccccc1 [duvelisib]
In short: as §1

gandotinib = compound: Cc1cc(Nc2cc(CN3CCOCC3)c3nc(C)c(Cc4ccc(Cl)cc4F)n3n2)n[nH]1 [gandotinib]
In short: as §1

tozasertib = compound: Cc1cc(Nc2cc(N3CCN(C)CC3)nc(Sc3ccc(NC(=O)C4CC4)cc3)n2)n[nH]1 [tozasertib]
In short: as §1

[4] = compound: Cc1cc(SCc2sc(-c3ccc(C(F)(F)F)cc3)nc2C)ccc1OCC(=O)O
In short: as §1

doramapimod = compound: Cc1ccc(-n2nc(C(C)(C)C)cc2NC(=O)Nc2ccc(OCCN3CCOCC3)c3ccccc23)cc1 [doramapimod]
In short: as §1

ispinesib = compound: Cc1ccc(C(=O)N(CCCN)[C@@H](c2nc3cc(Cl)ccc3c(=O)n2Cc2ccccc2)C(C)C)cc1 [ispinesib]
In short: as §1

bafetinib = compound: Cc1ccc(NC(=O)c2ccc(CN3CC[C@H](N(C)C)C3)c(C(F)(F)F)c2)cc1Nc1nccc(-c2cncnc2)n1 [bafetinib]
In short: as §1

[5] = compound: Cc1cccc(CC(=O)N2CCc3c2ccc(-c2cn(C)c4ncnc(N)c24)c3F)n1
In short: as §1

nilotinib = compound: Cc1cn(-c2cc(NC(=O)c3ccc(C)c(Nc4nccc(-c5cccnc5)n4)c3)cc(C(F)(F)F)c2)cn1 [nilotinib]
In short: as §1

[6] = compound: Cc1nc(Nc2n[nH]c3c2CN(C(=O)N[C@H](CN(C)C)c2ccccc2)C3(C)C)c2sccc2n1
In short: as §1

dasatinib = compound: Cc1nc(Nc2ncc(C(=O)Nc3c(C)cccc3Cl)s2)cc(N2CCN(CCO)CC2)n1 [dasatinib]
In short: as §1

[7] = compound: Cc1ncc(-c2ccnc(Nc3ccc(S(C)(=O)=O)cc3)n2)n1C(C)C
In short: as §1

[8] = compound: Cn1cc(-c2ccc3c(c2)CCN3C(=O)Cc2cccc(C(F)(F)F)c2)c2c(N)ncnc21
In short: as §1

[9] = compound: Cn1cc(-c2ccc3nnc(C(F)(F)c4ccc5ncccc5c4)n3n2)cn1
In short: as §1

tipifarnib = compound: Cn1cncc1[C@@](N)(c1ccc(Cl)cc1)c1ccc2c(c1)c(-c1cccc(Cl)c1)cc(=O)n2C [tipifarnib]
In short: as §1

mubritinib = compound: FC(F)(F)c1ccc(/C=C/c2nc(COc3ccc(CCCCn4ccnn4)cc3)co2)cc1 [mubritinib]
In short: as §1

Measured: log2 fold change

GGA3 (UniProt Q9NZ52)
inactive: [1] -0.001 | crizotinib 0.057 | [2] 0.058 | [3] -0.031 | duvelisib 0.044 | gandotinib -0.151 | tozasertib 0.063 | [4] 0.039 | doramapimod -0.021 | ispinesib 0.063 | bafetinib -0.04 | [5] 0.059 | nilotinib -0.082 | [6] -0.022 | dasatinib -0.029 | [7] 0.015 | [8] -0.028 | [9] -0.021 | tipifarnib -0.033 | mubritinib -0.006

GGCT (UniProt O75223)
inactive: [1] 0.069 | crizotinib -0.017 | [2] 0.033 | [3] -0.091 | duvelisib 0.051 | gandotinib -0.046 | tozasertib 0.006 | [4] 0.002 | doramapimod -0.027 | ispinesib 0.027 | bafetinib 0.005 | [5] 0.017 | nilotinib 0.028 | [6] 0.013 | dasatinib -0.017 | [7] -0.004 | [8] 0.08 | [9] -0.001 | tipifarnib -0.039 | mubritinib -0.005

GFPT1 (UniProt Q06210)
inactive: [1] 0.054 | crizotinib -0.053 | [2] 0 | [3] -0.113 | duvelisib 0.023 | gandotinib -0.053 | tozasertib -0.011 | [4] -0.005 | doramapimod -0.004 | ispinesib 0.035 | bafetinib 0.007 | [5] 0.066 | nilotinib 0.017 | [6] -0.003 | dasatinib 0.001 | [7] -0.025 | [8] 0.049 | [9] 0.014 | tipifarnib -0.066 | mubritinib 0.051

FURIN (UniProt P09958)
inactive: [1] 0.043 | crizotinib -0.285 | [2] -0.027 | [3] -0.003 | duvelisib 0.005 | gandotinib -0.009 | tozasertib 0.013 | [4] -0.054 | doramapimod -0.033 | ispinesib -0.125 | bafetinib -0.008 | [5] -0.015 | nilotinib -0.041 | [6] -0.058 | dasatinib 0.043 | [7] 0.023 | [8] -0.001 | [9] 0.032 | tipifarnib 0.101 | mubritinib -0.08

FUNDC2 (UniProt Q9BWH2)
inactive: [1] 0.032 | crizotinib 0.062 | [2] 0.033 | [3] -0.004 | duvelisib 0.045 | gandotinib -0.063 | tozasertib -0.017 | [4] 0.019 | doramapimod -0.015 | ispinesib -0.031 | bafetinib -0.075 | [5] -0.008 | nilotinib -0.031 | [6] 0.03 | dasatinib 0.089 | [7] -0.032 | [8] 0.028 | [9] 0.064 | tipifarnib 0.158 | mubritinib 0.021

GAGE5 (UniProt Q13069)
inactive: [1] 0.005 | crizotinib 0.157 | [2] 0.145 | [3] -0.034 | duvelisib 0.042 | gandotinib 0.075 | tozasertib -0.01 | [4] -0.092 | doramapimod 0.023 | ispinesib 0.025 | bafetinib -0.142 | [5] -0.122 | nilotinib 0.028 | [6] -0.024 | dasatinib 0.035 | [7] 0.006 | [8] 0.059 | [9] 0.053 | tipifarnib 0.107 | mubritinib 0.044

GAMT (UniProt Q14353)
inactive: [1] -0.043 | crizotinib -0.044 | [2] 0.16 | [3] -0.062 | duvelisib 0.036 | gandotinib -0.198 | tozasertib 0.051 | [4] -0.037 | doramapimod 0.026 | ispinesib 0.081 | bafetinib 0.017 | [5] 0.056 | nilotinib 0.052 | [6] -0.086 | dasatinib 0.046 | [7] -0.03 | [8] 0.12 | [9] -0.096 | tipifarnib 0 | mubritinib 0.094

Copied from above (two entries):
GGCT (UniProt O75223)
inactive: [1] 0.069 | crizotinib -0.017 | [2] 0.033 | [3] -0.091 | duvelisib 0.051 | gandotinib -0.046 | tozasertib 0.006 | [4] 0.002 | doramapimod -0.027 | ispinesib 0.027 | bafetinib 0.005 | [5] 0.017 | nilotinib 0.028 | [6] 0.013 | dasatinib -0.017 | [7] -0.004 | [8] 0.08 | [9] -0.001 | tipifarnib -0.039 | mubritinib -0.005

GFPT1 (UniProt Q06210)
inactive: [1] 0.054 | crizotinib -0.053 | [2] 0 | [3] -0.113 | duvelisib 0.023 | gandotinib -0.053 | tozasertib -0.011 | [4] -0.005 | doramapimod -0.004 | ispinesib 0.035 | bafetinib 0.007 | [5] 0.066 | nilotinib 0.017 | [6] -0.003 | dasatinib 0.001 | [7] -0.025 | [8] 0.049 | [9] 0.014 | tipifarnib -0.066 | mubritinib 0.051

(continued)

FUBP1 isoform 2 (UniProt Q96AE4)
inactive: [1] 0.002 | crizotinib 0.038 | [2] 0.002 | [3] -0.04 | duvelisib 0.014 | gandotinib -0.012 | tozasertib -0.023 | [4] -0.034 | doramapimod -0.05 | ispinesib 0.019 | bafetinib -0.03 | [5] -0.059 | nilotinib -0.01 | [6] 0.006 | dasatinib 0.045 | [7] -0.012 | [8] 0.012 | [9] 0.01 | tipifarnib 0.029 | mubritinib 0.031

GALE (UniProt Q14376)
inactive: [1] 0.028 | crizotinib 0.042 | [2] 0.091 | [3] -0.041 | duvelisib 0.036 | gandotinib 0.017 | tozasertib -0.023 | [4] 0 | doramapimod -0.058 | ispinesib 0.11 | bafetinib 0.006 | [5] 0.044 | nilotinib 0.072 | [6] -0.025 | dasatinib 0.004 | [7] 0 | [8] 0.06 | [9] 0.034 | tipifarnib -0.033 | mubritinib 0.123

G6PD isoform 2 (UniProt P11413)
inactive: [1] 0.031 | crizotinib -0.038 | [2] 0.109 | [3] -0.086 | duvelisib 0.017 | gandotinib -0.088 | tozasertib -0.018 | [4] 0.012 | doramapimod 0.018 | ispinesib 0.035 | bafetinib 0.017 | [5] 0.036 | nilotinib 0.073 | [6] -0.004 | dasatinib -0.066 | [7] -0.005 | [8] 0.07 | [9] -0.01 | tipifarnib -0.043 | mubritinib 0.004

GCAT isoform 2 (UniProt O75600)
inactive: [1] 0.028 | crizotinib 0 | [2] 0.089 | [3] -0.054 | duvelisib -0.043 | gandotinib 0.048 | tozasertib -0.093 | [4] 0.057 | doramapimod 0 | ispinesib -0.044 | bafetinib -0.064 | [5] -0.018 | nilotinib 0.09 | [6] 0.008 | dasatinib -0.032 | [7] -0.027 | [8] 0.002 | [9] -0.005 | tipifarnib 0.119 | mubritinib -0.077

FXR2 (UniProt P51116)
inactive: [1] -0.046 | crizotinib -0.131 | [2] -0.127 | [3] 0.446 | duvelisib -0.207 | gandotinib 0.191 | tozasertib 0.052 | [4] 0.084 | doramapimod 0.118 | ispinesib -0.306 | bafetinib 0.181 | [5] -0.01 | nilotinib 0.019 | [6] -0.266 | dasatinib 0.083 | [7] 0.001 | [8] -0.215 | [9] -0.259 | tipifarnib 0.042 | mubritinib -0.204

G3BP1 (UniProt Q13283)
inactive: [1] -0.038 | crizotinib -0.029 | [2] -0.389 | [3] 0.184 | duvelisib -0.09 | gandotinib 0.148 | tozasertib 0.004 | [4] 0.018 | doramapimod 0.064 | ispinesib -0.084 | bafetinib 0.104 | [5] -0.027 | nilotinib 0 | [6] 0.072 | dasatinib 0.026 | [7] 0.017 | [8] -0.107 | [9] -0.097 | tipifarnib 0.053 | mubritinib -0.05

GANAB isoform 2 (UniProt Q14697)
inactive: [1] 0.021 | crizotinib 0.02 | [2] -0.047 | [3] 0.111 | duvelisib -0.057 | gandotinib 0.037 | tozasertib 0.027 | [4] 0.059 | doramapimod 0.028 | ispinesib -0.016 | bafetinib 0.021 | [5] 0.015 | nilotinib -0.004 | [6] 0.024 | dasatinib 0 | [7] -0.03 | [8] -0.066 | [9] 0.009 | tipifarnib 0.042 | mubritinib -0.071

GAB1 isoform 2 (UniProt Q13480)
inactive: [1] -0.048 | crizotinib -0.015 | [2] -0.014 | [3] -0.03 | duvelisib -0.045 | gandotinib 0.015 | tozasertib 0.049 | [4] 0.02 | doramapimod 0.004 | ispinesib -0.163 | bafetinib -0.024 | [5] -0.067 | nilotinib 0.072 | [6] 0.007 | dasatinib 0.061 | [7] -0.121 | [8] 0.02 | [9] 0.002 | tipifarnib 0.013 | mubritinib 0.116

GC isoform 3 (UniProt P02774)
inactive: [1] -0.112 | crizotinib -0.245 | [2] -0.186 | [3] -0.112 | duvelisib -0.202 | gandotinib -0.116 | tozasertib 0.094 | [4] -0.013 | doramapimod 0.538 | ispinesib 0.167 | bafetinib 0.014 | [5] -0.107 | nilotinib 0.017 | [6] -0.008 | dasatinib 0.113 | [7] 0.345 | [8] 0.282 | [9] -0.218 | tipifarnib -0.084
